Assay results reported in PubChem BioAssay AID328 (DTP/NCI, 2004).
The list does not hold the whole screen: it is rich in T/C values a quarter to a half above the control, in often repeated tests (any T/C) and in doses without a T/C. Further doses and runs are listed elsewhere. T/C gives the treated animals as a percentage of the vehicle group. Some entries give survivors of the animals treated and no T/C: the source holds a T/C of zero for them, seemingly a mark for toxic or unscored doses. Some doses without a T/C left all or most animals alive at the check, yet need not have been tolerated: survival well below the control is almost never listed, so the zero probably covers shortened survival too. Survivors were counted at the toxicity check, usually on the fifth day, unless a day is given; later deaths do not show. Schedule codes are those of the source, read here as Q, the interval in days (D) or hours (H), X, the number of doses. For survival time, the PubChem record calls one and a half times the control and up active, and a quarter to a half above the control has no call in these data; cut-offs in other NCI protocols can differ. Some doses were run more than once; the results are listed from low to high. Some T/C values are followed by the survivors on the day toxicity was checked, most often the fifth; where none is given, no animal had died by that day.

System: BDF1 mice, P388 leukemia ip, median survival T/C
Test: NCI In Vivo Anticancer Drug Screen. Data for tumor model P388 Leukemia (intraperitoneal) in B6D2F1 (BDF1) mice
Details: T/C endpoint: median survival time, higher T/C = longer survival
In short: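 Transplantable tumour in mice; compound vs vehicle dosing; survival scored; ratio of treated to control reported.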

For Cc1c(-c2ccccc2)cc(O)cc1-c1ccccc1, the T/C (dose: 100.0 mg/kg/injection, schedule: Q04DX003 (ip), vehicle: saline) was 129 % of control.

NC(=O)CC(N)C(=O)O (configuration not stated) was tested, and the T/C (dose: 200.0 mg/kg/injection, schedule: Q01DX010 (ip), vehicle: saline with Tween-80) was 140 % of control and the T/C (dose: 800.0 mg/kg/injection, schedule: Q01DX010 (ip), vehicle: saline with Tween-80) was 136 % of control.

CN1CCc2cc3c4cc2C1Cc1ccc(O)c(c1)Oc1ccc(cc1)CC1c2c(cc(O)c(c2O4)O3)CCN1C (configuration not stated) was tested, and the survivor count (dose: 15.0 mg/kg/injection, schedule: Q01DX009 (ip), vehicle: saline with Tween-80) was 3 of 3 and the survivor count (dose: 30.0 mg/kg/injection, schedule: Q01DX009 (ip), vehicle: saline with Tween-80) was 2 of 3.

In the case of C=C(C)C12CC(C)C34OC5(CCCCCCCC(C)C6C(C)C(OC(=O)c7ccccc7)C(O)(C(O)C7(COC(=O)CCCCCCCCCCCCCCC)OC7C3C1O5)C64)O2 (configuration not stated), the T/C (dose: 6.2 micrograms/kg/injection, schedule: Q01DX009 (ip), vehicle: saline + alcohol) is reported as 144 % of control, the T/C (dose: 40.0 micrograms/kg/injection, schedule: Q01DX009 (ip), vehicle: saline + alcohol) is reported as 128 % of control and the survivor count (dose: 100.0 micrograms/kg/injection, schedule: Q01DX009 (ip), vehicle: saline + alcohol) is reported as 3 of 4.

For COc1cc2c(cc1OC)C(=O)C(c1ccc3c(c1)OCO3)CC2 (configuration not stated), the survivor count (dose: 200.0 mg/kg/injection, schedule: Q04DX003 (ip), vehicle: water) was 6 of 6 and the survivor count (dose: 400.0 mg/kg/injection, schedule: Q04DX003 (ip), vehicle: water) was 6 of 6.

For CC1CCCC2(CN=C(Nc3ccccc3)O2)C1 (configuration not stated), the survivor count (dose: 400.0 mg/kg/injection, schedule: Q01DX001 (ip), vehicle: Klucel (hydroxypropylcellulose) (HPC)) was 2 of 6.

For CCNc1nncs1, the T/C (dose: 50.0 mg/kg/injection, schedule: Q01DX009 (ip), vehicle: saline) was 136 % of control [5 of 6 alive], the T/C (dose: 66.0 mg/kg/injection, schedule: Q01DX009 (ip), vehicle: saline) was 141 % of control and the T/C (dose: 132.0 mg/kg/injection, schedule: Q04DX003 (ip), vehicle: saline with Tween-80) was 134 and 142 % of control. For the same compound, the survivor count (dose: 200.0 mg/kg/injection, schedule: Q01DX009 (ip), vehicle: saline) was 5 of 6, the T/C (dose: 200.0 mg/kg/injection, schedule: Q04DX003 (ip), vehicle: saline with Tween-80) was 142 % of control and the T/C (dose: 200.0 mg/kg/injection, schedule: Q04DX003 (ip), vehicle: saline) was 136 % of control. For the same compound, the survivor count (dose: 300.0 mg/kg/injection, schedule: Q04DX003 (ip), vehicle: saline with Tween-80) was 4 of 6 and the survivor count (dose: 400.0 mg/kg/injection, schedule: Q04DX003 (ip), vehicle: saline) was 5 of 6.

With N=C(N)c1ccc(OCCCOc2ccc(C(=N)N)cc2Br)c(Br)c1 the T/C (dose: 7.5 mg/kg/injection, schedule: Q01DX009 (ip), vehicle: saline) was 136 % of control, the T/C (dose: 16.5 mg/kg/injection, schedule: Q01DX009 (ip), vehicle: saline sonified) was 127 % of control and the T/C (dose: 37.5 mg/kg/injection, schedule: Q01DX009 (ip), vehicle: saline sonified) was 145 % of control.

For COc1ccc(C2C=C(C)Oc3c2c(=O)oc2ccccc32)cc1OC (configuration not stated), the survivor count (dose: 25.0 mg/kg/injection, schedule: Q01DX009 (ip), vehicle: water) was 5 of 6, the survivor count (dose: 50.0 mg/kg/injection, schedule: Q01DX009 (ip), vehicle: water) was 6 of 6 and the survivor count (dose: 100.0 mg/kg/injection, schedule: Q01DX009 (ip), vehicle: water) was 6 of 6. For the same compound, the survivor count (dose: 200.0 mg/kg/injection, schedule: Q01DX009 (ip), vehicle: water) was 3 of 6 and the survivor count (dose: 400.0 mg/kg/injection, schedule: Q01DX009 (ip), vehicle: water) was 3 of 6.
